Source: patent US20260265316A1 (DBV Technologies, priority 2023, published 2026)

B1: 4K (SEQ ID NO 46) (peptide)
chain: QLQPFPQPELPYPQPELPYPQPELPYPQPQPKKKKPQPEQPEQPFPEQPQKKKKPQQPFPQPEQPFPWQPQKKKKPSGEGSFQPSQENPQ

Test: peptide synthesis
Settings: whole synthesis, acetate; for final HPLC purity: 215 nm

Row | Molecule | final HPLC purity | isolated yield
1 | Ac-QLQPFPQPELPYPQPELPYPQPELPYPQPQP-NH2 | 97.0% | 46.5%
2 | H-PQPEQPEQPFPEQPQ-NH2 | 96.4% | 65.1%
3 | H-PQQPFPQPEQPFPWQPQ-NH2 | 97.6% | 58.9%
4 | H-PSGEGSFQPSQENPQ-NH2 | 98.5% | 43.6%
5 | B1 | 96.6% | 22.0%
